For 2 substances, binding results are on record in publication PMC8055027.

By UniProt entry, the sequences of proteins in these tests, tags left out.
UniProt P11388: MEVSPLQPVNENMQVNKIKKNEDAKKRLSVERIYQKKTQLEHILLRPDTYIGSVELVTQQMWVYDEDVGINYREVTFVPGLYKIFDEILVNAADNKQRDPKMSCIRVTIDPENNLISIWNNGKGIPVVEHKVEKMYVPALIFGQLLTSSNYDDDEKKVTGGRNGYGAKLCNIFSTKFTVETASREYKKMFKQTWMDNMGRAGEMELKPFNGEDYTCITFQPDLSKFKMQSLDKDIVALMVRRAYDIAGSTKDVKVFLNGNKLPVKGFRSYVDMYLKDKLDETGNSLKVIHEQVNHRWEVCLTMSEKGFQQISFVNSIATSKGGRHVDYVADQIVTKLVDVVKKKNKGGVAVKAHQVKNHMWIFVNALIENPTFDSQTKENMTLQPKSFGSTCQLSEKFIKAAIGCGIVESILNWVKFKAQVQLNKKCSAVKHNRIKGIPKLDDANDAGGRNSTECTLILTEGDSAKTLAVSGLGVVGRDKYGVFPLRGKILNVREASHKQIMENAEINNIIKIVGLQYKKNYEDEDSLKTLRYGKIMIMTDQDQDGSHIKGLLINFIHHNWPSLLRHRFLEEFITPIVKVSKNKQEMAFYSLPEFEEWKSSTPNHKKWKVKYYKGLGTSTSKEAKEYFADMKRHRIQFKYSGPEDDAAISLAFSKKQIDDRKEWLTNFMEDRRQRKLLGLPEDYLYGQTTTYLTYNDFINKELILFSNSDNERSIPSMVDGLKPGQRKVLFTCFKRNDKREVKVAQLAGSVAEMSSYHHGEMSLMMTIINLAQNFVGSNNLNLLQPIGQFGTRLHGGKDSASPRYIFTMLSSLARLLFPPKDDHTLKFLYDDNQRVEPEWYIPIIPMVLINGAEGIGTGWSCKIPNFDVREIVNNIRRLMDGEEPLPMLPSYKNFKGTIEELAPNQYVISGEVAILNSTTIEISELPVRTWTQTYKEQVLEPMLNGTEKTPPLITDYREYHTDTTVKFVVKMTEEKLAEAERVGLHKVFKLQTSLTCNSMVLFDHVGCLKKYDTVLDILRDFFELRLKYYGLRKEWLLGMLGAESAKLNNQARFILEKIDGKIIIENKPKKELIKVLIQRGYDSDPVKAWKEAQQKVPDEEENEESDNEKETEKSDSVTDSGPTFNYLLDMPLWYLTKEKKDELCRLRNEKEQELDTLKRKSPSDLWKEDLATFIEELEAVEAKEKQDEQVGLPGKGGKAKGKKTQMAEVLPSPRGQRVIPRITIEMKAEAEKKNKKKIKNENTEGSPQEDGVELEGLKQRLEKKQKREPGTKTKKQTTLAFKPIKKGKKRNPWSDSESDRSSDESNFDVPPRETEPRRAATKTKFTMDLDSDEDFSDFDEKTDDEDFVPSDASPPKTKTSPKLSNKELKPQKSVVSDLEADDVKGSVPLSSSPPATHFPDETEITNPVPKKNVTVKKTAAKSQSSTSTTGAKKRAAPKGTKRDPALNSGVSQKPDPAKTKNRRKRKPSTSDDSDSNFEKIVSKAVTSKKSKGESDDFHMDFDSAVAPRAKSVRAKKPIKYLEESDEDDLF
UniProt P51532: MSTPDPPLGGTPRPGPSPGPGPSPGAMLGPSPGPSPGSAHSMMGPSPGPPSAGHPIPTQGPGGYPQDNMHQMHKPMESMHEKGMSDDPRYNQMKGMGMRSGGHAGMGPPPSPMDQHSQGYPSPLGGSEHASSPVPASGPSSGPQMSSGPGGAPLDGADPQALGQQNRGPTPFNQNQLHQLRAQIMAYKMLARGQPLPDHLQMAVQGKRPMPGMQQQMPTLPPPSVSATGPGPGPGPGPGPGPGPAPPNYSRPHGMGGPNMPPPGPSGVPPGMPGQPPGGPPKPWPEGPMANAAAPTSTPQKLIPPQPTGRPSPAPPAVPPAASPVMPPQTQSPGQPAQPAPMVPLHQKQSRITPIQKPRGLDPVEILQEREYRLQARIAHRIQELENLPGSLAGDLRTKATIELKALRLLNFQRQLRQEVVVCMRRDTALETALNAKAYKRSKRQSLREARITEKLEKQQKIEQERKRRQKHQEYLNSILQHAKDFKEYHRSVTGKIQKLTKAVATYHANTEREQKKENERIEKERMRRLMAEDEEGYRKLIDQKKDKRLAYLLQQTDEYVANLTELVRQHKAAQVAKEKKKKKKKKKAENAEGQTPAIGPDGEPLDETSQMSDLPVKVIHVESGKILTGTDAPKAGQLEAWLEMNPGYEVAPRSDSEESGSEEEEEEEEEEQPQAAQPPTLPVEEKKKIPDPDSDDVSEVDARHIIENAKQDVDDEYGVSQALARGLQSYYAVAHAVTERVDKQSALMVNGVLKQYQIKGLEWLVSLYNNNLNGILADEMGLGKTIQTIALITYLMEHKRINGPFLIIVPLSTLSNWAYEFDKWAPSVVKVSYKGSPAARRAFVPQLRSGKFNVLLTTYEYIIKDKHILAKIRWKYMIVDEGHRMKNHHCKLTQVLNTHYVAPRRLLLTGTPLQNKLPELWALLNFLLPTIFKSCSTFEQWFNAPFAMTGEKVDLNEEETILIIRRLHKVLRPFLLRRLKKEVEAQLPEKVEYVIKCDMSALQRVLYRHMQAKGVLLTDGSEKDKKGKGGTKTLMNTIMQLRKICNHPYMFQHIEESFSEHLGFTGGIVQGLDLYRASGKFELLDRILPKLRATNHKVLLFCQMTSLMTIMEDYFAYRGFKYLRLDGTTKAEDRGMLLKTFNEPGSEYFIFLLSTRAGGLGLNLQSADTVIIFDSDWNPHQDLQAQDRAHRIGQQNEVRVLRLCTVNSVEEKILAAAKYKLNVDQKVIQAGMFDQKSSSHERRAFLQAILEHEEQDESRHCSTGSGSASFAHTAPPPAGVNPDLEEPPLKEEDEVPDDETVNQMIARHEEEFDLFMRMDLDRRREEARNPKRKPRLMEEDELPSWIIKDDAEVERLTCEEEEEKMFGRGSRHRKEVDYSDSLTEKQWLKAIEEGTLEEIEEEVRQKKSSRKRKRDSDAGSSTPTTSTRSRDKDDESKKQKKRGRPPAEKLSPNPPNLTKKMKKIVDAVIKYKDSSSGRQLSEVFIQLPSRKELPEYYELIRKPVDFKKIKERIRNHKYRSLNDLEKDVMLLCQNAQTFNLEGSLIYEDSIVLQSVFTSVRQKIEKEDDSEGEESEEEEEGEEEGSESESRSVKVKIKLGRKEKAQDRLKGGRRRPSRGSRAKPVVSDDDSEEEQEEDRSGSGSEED
UniProt Q92922: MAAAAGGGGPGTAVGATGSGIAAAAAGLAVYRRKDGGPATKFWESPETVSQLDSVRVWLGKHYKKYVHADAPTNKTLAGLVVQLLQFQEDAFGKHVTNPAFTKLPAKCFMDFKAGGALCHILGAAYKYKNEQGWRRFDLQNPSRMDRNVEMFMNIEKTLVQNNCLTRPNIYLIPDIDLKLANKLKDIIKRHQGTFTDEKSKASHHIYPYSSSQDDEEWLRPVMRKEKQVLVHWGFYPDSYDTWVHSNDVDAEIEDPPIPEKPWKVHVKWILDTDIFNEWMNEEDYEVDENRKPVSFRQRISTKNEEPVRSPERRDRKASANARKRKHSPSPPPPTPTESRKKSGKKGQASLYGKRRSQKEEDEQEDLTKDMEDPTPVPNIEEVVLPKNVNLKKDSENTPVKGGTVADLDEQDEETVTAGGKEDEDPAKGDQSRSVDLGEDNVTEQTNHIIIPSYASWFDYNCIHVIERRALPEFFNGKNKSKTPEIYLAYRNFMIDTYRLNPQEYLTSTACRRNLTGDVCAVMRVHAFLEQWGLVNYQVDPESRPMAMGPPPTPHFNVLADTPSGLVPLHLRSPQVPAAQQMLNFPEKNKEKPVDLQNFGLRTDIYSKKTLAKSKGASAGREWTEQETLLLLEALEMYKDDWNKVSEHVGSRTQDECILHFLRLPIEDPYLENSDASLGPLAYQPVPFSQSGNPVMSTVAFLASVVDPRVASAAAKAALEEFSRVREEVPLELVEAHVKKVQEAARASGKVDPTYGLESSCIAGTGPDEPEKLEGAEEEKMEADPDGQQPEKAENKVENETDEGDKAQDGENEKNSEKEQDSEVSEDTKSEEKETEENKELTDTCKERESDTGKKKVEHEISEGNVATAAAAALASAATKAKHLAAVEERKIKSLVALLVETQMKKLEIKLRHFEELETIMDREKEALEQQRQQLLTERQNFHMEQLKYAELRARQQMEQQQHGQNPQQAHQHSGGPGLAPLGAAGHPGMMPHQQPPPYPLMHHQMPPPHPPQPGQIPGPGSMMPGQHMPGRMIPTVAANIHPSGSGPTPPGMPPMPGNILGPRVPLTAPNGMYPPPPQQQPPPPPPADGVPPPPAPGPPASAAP

These are yes or no findings as the source states them, for the method shown. Binding seen in cells or lysates may run through a third protein. Some entries that bind do so weakly or less than the wild type.

The target of this experiment is Topoisomerase IIα (human (endogenous in RMG1)) (UniProt P11388). The experiment can be described thus: co-IP; TOP2A antibody (3 ug) on Protein G magnetic beads; total nuclear protein of ARID1A-WT and ARID1A-KO RMG1 cells in CHAPS buffer, 4°C overnight, 4 washes with CHAPS buffer; western blot; IgG control. (In general: In western blotting, separated proteins are transferred to a membrane and probed.)

For the substance “Brg1, catalytic subunit of the BAF complex (from UniProt P51532 1-1647)”, the binding entry is recorded as “binds”.
For “BAF155 subunit of the BAF complex (from UniProt Q92922 1-1105)”, the binding entry is on record as “binds”.
